In PMC5973619:
Read-outs that look alike come from different tables or passages of the source. These are yes or no findings as the source states them, for the method shown. In cells and extracts the contact can be indirect. Some entries that bind do so weakly or less than the wild type. For some of these results: Sequences can lack the tags named with a protein.

Chains of the proteins cited; added tags and fusions are not shown.
UniProt O94901: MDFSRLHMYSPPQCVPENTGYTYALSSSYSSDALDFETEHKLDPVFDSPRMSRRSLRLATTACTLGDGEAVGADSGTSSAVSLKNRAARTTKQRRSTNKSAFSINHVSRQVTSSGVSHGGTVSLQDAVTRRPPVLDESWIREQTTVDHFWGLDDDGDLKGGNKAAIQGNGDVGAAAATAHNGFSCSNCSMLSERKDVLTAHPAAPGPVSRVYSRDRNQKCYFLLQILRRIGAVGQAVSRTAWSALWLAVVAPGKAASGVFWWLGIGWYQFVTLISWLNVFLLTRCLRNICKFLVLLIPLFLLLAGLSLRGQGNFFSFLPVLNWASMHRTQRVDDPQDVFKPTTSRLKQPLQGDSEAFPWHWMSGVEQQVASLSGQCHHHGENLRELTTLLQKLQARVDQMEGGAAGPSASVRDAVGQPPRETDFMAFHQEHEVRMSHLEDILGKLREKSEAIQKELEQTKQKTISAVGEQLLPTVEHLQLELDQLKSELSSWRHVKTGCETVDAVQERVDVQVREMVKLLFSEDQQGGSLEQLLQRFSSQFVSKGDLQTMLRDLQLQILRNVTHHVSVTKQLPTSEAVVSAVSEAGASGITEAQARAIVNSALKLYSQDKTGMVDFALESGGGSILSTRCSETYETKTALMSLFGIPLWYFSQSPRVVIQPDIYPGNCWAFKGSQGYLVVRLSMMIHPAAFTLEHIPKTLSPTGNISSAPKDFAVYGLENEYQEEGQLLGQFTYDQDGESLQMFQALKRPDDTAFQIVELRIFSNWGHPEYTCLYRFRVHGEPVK

What was measured:
[1] = target: Sun1 (human (endogenous in HeLa)) (UniProt O94901); assay: cross-linking; HeLa cells in PBS containing .5% formaldehyde for 10min room temperature before lysis; reducing SDS-PAGE and blot for Sun1 and Sun2
[2] = target: Nesprin1 (human (endogenous in HeLa)) (UniProt Q8NF91); assay: co-IP; 2 ug Nesprin1 or Nesprin2 antibody and protein A/G beads on RIPA lysate of isolated nuclei of HeLa cells (unperturbed, or stable lines induced with doxycycline: GFP-SR-KASH, HA-mSun2, HA-Sun1 forms); blot for SUN proteins
[3] = target: Nesprin2 (human (endogenous in HeLa and RPE-1)) (UniProt Q8WXH0); assay: as above
[4] = target: Nesprin2 (human (endogenous in HeLa and RPE-1)) (UniProt Q8WXH0); assay: as above; remark: listed apart in the source

Row | Molecule | binding [1] | binding [2] | binding [3] | binding [4]
1 | Sun1 (from UniProt O94901 1-785) | binds | binds | binds | –
2 | HA-mSun2 (protein, UniProt Q8BJS4 1-731) MSRRSQRLTRYSQDDNDGGSSSSGASSVAGSQGTVFKDSPLRTLKRKSSNMKHLSPAPQLGPSSDSHTSYYSESVVRESYIGSPRAVSLARSALLDDHLHSEPYWSGDLRGRRRRGTGGSESSKANGLTAESKASEDFFGSSSGYSSEDDLAGYTDSDQHSSGSRLRSAASRAGSFVWTLVTFPGRLFGLLYWWIGTTWYRLTTAASLLDVFVLTRSRHFSLNLKSFLWFLLLLLLLTGLTYGAWHFYPLGLQTLQPAVVSWWAAKESRKQPEVWESRDASQHFQAEQRVLSRVHSLERRLEALAADFSSNWQKEAIRLERLELRQGAAGHGGGSSLSHEDALSLLEGLVSRREATLKEDLRRDTVAHIQEELATLRAEHHQDSEDLFKKIVQASQESEARVQQLKTEWKSMTQEAFQESSVKELGRLEAQLASLRQELAALTLKQNSVADEVGLLPQKIQAARADVESQFPDWIRQFLLGDRGARSGLLQRDEMHAQLQELENKILTKMAEMQGKSAREAAASLGQILQKEGIVGVTEEQVHRIVKQALQRYSEDRIGMVDYALESGGASVISTRCSETYETKTALLSLFGIPLWYHSQSPRVILQPDVHPGNCWAFQGPQGFAVVRLSARIRPTAVTLEHVPKALSPNSTISSAPKDFAIFGFDEDLQQEGTLLGTFAYDQDGEPIQTFYFQASKMATYQVVELRILTNWGHPEYTCIYRFRVHGEPAH | – | – | – | binds
